{"sequences": {"note": "By UniProt entry, the sequences of proteins in these tests, tags left out.", "UniProt P35579": "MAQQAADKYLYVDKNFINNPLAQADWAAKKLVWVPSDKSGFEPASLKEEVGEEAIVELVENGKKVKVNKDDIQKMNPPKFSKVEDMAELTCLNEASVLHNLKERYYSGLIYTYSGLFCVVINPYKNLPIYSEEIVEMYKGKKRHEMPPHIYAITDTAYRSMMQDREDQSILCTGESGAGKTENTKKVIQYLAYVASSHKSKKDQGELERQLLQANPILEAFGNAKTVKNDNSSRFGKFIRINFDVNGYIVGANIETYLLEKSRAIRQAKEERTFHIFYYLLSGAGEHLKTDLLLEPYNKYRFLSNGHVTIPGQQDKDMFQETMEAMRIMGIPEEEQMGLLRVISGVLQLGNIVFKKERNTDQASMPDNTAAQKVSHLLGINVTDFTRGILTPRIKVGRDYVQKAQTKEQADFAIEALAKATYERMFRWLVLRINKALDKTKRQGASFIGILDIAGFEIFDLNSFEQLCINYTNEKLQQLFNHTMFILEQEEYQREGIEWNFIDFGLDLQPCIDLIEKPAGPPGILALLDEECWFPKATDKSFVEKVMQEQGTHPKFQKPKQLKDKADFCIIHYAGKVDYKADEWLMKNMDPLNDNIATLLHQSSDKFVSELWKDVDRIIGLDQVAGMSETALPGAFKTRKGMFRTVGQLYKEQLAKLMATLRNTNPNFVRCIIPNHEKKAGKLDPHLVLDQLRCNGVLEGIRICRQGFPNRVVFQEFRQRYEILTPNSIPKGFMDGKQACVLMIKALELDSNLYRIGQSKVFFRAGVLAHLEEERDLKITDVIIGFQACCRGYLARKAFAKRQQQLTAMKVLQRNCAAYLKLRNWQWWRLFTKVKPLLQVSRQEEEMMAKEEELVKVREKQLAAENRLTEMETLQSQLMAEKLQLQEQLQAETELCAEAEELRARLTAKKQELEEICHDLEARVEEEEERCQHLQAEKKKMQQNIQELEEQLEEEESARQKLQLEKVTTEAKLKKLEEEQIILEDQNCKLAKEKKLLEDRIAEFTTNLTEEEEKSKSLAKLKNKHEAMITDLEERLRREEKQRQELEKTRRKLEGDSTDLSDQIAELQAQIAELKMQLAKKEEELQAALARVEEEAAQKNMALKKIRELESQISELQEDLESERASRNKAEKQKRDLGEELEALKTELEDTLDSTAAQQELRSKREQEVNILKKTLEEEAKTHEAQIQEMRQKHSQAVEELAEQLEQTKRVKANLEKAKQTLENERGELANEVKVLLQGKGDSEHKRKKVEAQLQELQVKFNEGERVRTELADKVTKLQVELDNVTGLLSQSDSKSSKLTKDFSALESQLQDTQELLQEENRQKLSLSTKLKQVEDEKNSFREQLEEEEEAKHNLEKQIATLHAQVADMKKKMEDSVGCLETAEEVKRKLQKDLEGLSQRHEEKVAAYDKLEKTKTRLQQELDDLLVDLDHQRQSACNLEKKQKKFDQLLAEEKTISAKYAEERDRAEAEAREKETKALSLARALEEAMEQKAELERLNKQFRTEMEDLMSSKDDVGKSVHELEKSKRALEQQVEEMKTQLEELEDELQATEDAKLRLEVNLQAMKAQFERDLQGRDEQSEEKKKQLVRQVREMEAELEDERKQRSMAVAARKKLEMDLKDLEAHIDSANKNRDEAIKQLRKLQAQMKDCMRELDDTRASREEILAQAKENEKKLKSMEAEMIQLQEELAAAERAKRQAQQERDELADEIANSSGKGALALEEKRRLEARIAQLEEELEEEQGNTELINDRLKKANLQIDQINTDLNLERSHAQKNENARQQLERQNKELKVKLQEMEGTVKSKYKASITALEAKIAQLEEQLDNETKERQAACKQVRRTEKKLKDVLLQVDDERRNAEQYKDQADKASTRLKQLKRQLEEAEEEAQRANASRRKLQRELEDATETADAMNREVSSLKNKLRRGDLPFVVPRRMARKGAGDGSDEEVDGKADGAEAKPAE", "UniProt P35580": "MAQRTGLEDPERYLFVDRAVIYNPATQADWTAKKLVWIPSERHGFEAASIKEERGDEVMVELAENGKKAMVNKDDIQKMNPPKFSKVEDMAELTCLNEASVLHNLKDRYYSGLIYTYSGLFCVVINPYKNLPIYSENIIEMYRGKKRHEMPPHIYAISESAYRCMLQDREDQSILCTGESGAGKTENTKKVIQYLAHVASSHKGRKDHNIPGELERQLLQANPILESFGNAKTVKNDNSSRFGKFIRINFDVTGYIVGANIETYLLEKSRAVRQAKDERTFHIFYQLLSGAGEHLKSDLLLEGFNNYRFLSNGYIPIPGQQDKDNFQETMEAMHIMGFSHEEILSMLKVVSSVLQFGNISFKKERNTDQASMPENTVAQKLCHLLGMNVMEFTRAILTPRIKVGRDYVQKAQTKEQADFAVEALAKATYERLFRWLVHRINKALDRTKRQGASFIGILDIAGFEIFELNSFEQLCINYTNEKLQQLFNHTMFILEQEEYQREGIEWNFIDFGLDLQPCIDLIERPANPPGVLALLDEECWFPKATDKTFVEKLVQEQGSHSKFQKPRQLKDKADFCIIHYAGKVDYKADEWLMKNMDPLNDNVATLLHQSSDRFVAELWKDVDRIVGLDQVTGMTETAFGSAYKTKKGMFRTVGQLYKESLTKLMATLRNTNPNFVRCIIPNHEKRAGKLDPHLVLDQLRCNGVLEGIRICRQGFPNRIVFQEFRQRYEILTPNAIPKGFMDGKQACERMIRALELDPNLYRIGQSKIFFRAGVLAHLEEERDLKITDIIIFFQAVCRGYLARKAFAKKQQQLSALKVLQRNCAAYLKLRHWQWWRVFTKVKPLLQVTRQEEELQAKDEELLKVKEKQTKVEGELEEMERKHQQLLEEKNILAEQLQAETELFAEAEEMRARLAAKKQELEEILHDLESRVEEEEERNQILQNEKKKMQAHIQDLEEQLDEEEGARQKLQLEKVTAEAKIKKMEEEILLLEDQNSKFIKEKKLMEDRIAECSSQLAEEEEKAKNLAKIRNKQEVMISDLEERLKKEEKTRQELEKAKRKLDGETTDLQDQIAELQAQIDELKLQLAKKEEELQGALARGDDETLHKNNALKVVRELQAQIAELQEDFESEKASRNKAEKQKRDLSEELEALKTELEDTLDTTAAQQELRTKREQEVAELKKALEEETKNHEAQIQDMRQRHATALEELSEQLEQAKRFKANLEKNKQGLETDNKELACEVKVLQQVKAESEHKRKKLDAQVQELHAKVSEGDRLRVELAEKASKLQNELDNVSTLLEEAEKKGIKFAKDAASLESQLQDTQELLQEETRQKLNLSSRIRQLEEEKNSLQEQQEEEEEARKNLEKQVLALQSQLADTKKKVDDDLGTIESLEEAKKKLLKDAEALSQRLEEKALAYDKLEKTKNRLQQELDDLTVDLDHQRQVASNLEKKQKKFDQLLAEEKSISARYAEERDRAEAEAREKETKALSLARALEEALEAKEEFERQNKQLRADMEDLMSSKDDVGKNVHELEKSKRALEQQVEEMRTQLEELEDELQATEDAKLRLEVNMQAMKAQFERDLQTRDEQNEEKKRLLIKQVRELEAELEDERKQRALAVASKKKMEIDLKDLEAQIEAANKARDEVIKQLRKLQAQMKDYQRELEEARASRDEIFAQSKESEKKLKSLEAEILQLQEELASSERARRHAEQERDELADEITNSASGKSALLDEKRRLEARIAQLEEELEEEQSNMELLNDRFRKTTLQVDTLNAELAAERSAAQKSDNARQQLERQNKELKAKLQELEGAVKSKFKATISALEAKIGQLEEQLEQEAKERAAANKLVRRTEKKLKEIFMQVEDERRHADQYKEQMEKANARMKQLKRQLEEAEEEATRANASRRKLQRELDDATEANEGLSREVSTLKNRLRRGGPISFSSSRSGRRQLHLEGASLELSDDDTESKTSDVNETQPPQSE"}, "source": "paper PMC11949031", "molecules": {"B1": {"name": "HA-tagged UNC45A wild-type (Unc-45 myosin chaperone A) (protein, UniProt Q9H3U1-1 1-944)", "chain": "MTVSGPGTPEPRPATPGASSVEQLRKEGNELFKCGDYGGALAAYTQALGLDATPQDQAVLHRNRAACHLKLEDYDKAETEASKAIEKDGGDVKALYRRSQALEKLGRLDQAVLDLQRCVSLEPKNKVFQEALRNIGGQIQEKVRYMSSTDAKVEQMFQILLDPEEKGTEKKQKASQNLVVLAREDAGAEKIFRSNGVQLLQRLLDMGETDLMLAALRTLVGICSEHQSRTVATLSILGTRRVVSILGVESQAVSLAACHLLQVMFDALKEGVKKGFRGKEGAIIVDPARELKVLISNLLDLLTEVGVSGQGRDNALTLLIKAVPRKSLKDPNNSLTLWVIDQGLKKILEVGGSLQDPPGELAVTANSRMSASILLSKLFDDLKCDAERENFHRLCENYIKSWFEGQGLAGKLRAIQTVSCLLQGPCDAGNRALELSGVMESVIALCASEQEEEQLVAVEALIHAAGKAKRASFITANGVSLLKDLYKCSEKDSIRIRALVGLCKLGSAGGTDFSMKQFAEGSTLKLAKQCRKWLCNDQIDAGTRRWAVEGLAYLTFDADVKEEFVEDAAALKALFQLSRLEERSVLFAVASALVNCTNSYDYEEPDPKMVELAKYAKQHVPEQHPKDKPSFVRARVKKLLAAGVVSAMVCMVKTESPVLTSSCRELLSRVFLALVEEVEDRGTVVAQGGGRALIPLALEGTDVGQTKAAQALAKLTITSNPEMTFPGERIYEVVRPLVSLLHLNCSGLQNFEALMALTNLAGISERLRQKILKEKAVPMIEGYMFEEHEMIRRAATECMCNLAMSKEVQDLFEAQGNDRLKLLVLYSGEDDELLQRAAAGGLAMLTSMRPTLCSRIPQVTTHWLEILQALLLSSNQELQHRGAVVVLNMVEASREIASTLMESEMMEILSVLAKGDHSPVTRAAAACLDKAVEYGLIQPNQDGE"}, "B2": {"name": "HA-tagged UNC45A p.Leu237Pro mutant (protein, UniProt Q9H3U1-1 1-944)", "chain": "B1 chain with L237P"}}, "key": {"[1]": {"target": "T1, HA-tagged UNC45A p.Leu237Pro mutant (human) (UniProt Q9H3U1)", "T1 sequence": "B1 chain with L237P", "test": "co-IP; anti-HA antibody and Protein A-Sepharose from lysates of transiently transfected U2OS UNC45A-KO cells; EDTA-free EB4 lysis buffer (40 mM Tris-HCl pH 8.0, 100 mM NaCl, 0.5% NP-40), 4°C; immunoblot for HA, NMIIA, NMIIB"}, "[2]": {"target": "T2, His-tagged UNC45A wild-type (human) (UniProt Q9H3U1)", "T2 sequence": "B1 chain", "test": "pull-down; oligomerization assay: His- and HA-tagged UNC45A cotransfected in U2OS UNC45A-KO cells; His-tagged bait held on Ni-NTA Agarose, 17.5 mM imidazole, 4°C; washes with EDTA-free EB4 buffer with 25 mM imidazole and then 400 mM NaCl; immunoblot for HA"}, "[3]": {"target": "T3, His-tagged UNC45A p.Leu237Pro mutant (human) (UniProt Q9H3U1)", "T3 sequence": "B1 chain with L237P", "test": "pull-down; oligomerization assay: His- and HA-tagged UNC45A cotransfected in U2OS UNC45A-KO cells; His-tagged bait held on Ni-NTA Agarose, 17.5 mM imidazole, 4°C; washes with EDTA-free EB4 buffer with 25 mM imidazole and then 400 mM NaCl; immunoblot for HA"}}, "note": "Changes are numbered by the printed parent chain. Results are given in words; binding and its absence hold for the method and conditions named. In cells and extracts the contact can be indirect. Some entries that bind do so weakly or less than the wild type. Tags and fused reporters may be left off the sequences shown."}
{"molecule": "NMIIA (from UniProt P35579 1-1960)", "values": [{"measurement": "binding", "setting": "[1]", "result": "binds"}]}
{"molecule": "NMIIB (from UniProt P35580 1-1976)", "values": [{"measurement": "binding", "setting": "[1]", "result": "binds"}]}
{"molecule": "B1", "values": [{"measurement": "binding", "setting": "[2]", "result": "binds"}]}
{"molecule": "B2", "values": [{"measurement": "binding", "setting": "[3]", "result": "binds"}, {"measurement": "binding", "setting": "[2]", "result": "binds"}]}
